Measured values: publication PMC11271478
These are yes or no findings as the source states them, for the method shown. Binding seen in cells or lysates may run through a third protein. Some results given as binding are weak or reduced against the parent protein; the word gives no strength. For some of these results: Tags and fused reporters may be left off the sequences shown.

By UniProt entry, the sequences of proteins in these tests, tags left out.
UniProt E9Q401: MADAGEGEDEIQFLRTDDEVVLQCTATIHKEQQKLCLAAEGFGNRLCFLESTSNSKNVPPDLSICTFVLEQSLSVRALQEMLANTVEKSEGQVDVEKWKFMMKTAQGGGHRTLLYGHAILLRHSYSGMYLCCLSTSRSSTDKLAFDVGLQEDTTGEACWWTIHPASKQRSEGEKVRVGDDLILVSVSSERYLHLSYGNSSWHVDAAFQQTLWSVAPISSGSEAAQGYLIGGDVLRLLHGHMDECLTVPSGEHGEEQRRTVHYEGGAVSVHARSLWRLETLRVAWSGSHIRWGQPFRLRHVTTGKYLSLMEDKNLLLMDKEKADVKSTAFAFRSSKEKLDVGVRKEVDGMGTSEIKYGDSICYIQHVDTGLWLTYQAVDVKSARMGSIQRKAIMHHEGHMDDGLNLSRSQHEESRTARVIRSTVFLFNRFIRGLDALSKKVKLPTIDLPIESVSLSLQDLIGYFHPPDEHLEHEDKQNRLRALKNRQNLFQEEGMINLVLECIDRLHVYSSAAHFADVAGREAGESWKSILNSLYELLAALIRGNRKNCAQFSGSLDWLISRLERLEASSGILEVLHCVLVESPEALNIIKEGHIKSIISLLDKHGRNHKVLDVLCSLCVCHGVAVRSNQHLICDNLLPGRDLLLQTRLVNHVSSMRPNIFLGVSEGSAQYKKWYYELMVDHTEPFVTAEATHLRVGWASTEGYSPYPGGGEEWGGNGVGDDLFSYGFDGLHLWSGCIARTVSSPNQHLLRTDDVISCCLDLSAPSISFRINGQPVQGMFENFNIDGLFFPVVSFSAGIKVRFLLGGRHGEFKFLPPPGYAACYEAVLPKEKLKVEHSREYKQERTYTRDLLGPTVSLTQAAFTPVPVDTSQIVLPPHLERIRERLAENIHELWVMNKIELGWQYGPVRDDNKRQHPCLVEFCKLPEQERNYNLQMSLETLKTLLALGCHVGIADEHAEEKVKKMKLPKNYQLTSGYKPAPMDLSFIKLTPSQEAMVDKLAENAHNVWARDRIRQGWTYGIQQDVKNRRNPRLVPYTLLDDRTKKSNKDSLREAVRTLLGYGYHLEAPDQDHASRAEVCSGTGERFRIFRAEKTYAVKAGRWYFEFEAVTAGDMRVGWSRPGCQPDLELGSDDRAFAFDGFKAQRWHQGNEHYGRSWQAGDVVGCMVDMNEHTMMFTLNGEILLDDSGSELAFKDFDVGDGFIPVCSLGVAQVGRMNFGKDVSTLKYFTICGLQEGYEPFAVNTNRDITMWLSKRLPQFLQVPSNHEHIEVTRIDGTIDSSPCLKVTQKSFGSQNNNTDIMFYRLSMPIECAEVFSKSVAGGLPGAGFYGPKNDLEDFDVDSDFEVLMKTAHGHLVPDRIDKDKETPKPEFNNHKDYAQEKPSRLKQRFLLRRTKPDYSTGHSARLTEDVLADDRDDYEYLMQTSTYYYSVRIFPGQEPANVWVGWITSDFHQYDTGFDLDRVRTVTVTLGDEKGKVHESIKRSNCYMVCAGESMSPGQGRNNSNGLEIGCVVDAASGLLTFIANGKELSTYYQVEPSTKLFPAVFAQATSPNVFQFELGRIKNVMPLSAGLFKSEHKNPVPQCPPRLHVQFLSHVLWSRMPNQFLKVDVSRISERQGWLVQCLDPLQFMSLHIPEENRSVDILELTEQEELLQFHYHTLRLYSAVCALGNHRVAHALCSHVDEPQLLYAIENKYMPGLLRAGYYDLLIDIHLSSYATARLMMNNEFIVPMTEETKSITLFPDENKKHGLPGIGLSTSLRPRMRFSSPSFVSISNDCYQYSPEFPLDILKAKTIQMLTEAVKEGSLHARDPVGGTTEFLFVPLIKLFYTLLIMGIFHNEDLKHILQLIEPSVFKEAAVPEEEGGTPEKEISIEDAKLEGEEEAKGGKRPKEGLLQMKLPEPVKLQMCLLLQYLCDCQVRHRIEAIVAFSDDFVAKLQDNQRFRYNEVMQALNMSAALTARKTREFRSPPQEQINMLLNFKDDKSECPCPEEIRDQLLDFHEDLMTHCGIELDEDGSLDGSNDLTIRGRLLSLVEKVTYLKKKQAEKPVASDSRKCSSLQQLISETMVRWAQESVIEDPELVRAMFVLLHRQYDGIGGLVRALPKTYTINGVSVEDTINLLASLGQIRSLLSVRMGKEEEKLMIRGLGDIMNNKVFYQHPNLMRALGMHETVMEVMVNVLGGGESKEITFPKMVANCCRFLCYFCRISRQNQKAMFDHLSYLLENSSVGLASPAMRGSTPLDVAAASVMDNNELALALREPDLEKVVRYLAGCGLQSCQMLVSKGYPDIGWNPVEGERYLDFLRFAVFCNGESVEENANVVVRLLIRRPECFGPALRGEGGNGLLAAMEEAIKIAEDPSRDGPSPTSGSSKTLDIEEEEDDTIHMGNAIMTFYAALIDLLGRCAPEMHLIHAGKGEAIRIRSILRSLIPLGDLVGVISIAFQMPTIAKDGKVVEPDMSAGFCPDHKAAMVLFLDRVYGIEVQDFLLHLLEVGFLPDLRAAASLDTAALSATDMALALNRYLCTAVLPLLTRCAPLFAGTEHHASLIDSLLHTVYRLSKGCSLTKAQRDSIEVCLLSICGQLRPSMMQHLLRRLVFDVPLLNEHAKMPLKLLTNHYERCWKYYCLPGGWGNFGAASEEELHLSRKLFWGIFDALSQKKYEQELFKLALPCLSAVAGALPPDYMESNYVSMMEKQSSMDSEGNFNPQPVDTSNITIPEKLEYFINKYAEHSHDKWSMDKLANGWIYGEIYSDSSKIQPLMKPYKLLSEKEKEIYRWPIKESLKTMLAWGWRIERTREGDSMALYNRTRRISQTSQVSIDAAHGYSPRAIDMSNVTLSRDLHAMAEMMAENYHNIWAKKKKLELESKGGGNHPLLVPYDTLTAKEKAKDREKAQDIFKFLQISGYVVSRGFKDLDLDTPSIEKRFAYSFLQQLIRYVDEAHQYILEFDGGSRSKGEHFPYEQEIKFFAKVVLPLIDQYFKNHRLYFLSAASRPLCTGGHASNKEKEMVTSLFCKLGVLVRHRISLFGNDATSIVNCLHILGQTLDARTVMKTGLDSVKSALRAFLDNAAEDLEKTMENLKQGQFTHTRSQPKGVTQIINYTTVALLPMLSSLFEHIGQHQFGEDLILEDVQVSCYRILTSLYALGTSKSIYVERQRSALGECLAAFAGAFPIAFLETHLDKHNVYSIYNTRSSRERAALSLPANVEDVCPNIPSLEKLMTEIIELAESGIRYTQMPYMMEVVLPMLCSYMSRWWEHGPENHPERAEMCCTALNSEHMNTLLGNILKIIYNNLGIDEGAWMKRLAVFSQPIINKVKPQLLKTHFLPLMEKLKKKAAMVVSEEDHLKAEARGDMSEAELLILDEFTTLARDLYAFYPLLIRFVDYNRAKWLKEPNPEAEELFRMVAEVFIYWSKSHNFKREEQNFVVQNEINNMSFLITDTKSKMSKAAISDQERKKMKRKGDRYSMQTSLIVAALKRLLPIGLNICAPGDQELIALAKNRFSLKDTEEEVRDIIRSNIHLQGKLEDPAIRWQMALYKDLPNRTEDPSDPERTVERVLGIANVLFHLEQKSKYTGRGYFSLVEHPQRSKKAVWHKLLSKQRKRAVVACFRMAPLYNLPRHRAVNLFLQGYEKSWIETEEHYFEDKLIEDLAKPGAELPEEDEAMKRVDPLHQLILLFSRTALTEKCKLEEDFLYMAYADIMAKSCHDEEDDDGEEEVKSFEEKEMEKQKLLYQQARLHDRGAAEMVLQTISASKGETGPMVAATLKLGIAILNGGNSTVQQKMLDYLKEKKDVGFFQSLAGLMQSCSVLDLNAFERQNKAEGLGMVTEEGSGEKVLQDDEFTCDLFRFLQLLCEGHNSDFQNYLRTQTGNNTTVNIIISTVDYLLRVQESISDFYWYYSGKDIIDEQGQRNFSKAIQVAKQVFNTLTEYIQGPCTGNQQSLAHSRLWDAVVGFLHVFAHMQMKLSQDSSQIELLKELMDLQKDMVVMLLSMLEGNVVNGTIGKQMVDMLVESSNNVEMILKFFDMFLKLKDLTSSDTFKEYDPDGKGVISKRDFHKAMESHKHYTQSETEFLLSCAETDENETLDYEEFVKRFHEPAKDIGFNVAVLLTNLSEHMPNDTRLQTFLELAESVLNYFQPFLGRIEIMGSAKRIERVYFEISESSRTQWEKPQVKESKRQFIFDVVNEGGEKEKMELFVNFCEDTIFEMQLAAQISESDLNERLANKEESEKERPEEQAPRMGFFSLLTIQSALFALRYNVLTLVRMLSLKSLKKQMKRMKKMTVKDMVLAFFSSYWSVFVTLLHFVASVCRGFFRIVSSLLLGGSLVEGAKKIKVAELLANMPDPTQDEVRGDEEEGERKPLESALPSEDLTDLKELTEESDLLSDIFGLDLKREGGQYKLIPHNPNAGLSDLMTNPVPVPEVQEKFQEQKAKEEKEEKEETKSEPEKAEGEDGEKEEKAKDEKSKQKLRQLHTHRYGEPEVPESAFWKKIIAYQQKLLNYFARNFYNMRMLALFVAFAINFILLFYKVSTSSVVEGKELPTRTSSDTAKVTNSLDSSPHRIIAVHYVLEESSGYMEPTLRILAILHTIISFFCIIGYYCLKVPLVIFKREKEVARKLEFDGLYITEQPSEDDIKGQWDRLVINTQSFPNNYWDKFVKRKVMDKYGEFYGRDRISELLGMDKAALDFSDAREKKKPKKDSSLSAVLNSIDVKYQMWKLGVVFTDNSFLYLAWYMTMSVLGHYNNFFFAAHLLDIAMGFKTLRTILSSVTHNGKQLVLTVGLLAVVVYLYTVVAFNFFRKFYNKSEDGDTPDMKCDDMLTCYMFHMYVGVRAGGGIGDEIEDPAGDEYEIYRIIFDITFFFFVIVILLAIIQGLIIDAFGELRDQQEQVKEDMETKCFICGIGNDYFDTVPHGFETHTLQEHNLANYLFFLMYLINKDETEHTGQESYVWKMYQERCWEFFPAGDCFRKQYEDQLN

T1: EGFP-WFS1 (UniProt O76024)
T1 sequence: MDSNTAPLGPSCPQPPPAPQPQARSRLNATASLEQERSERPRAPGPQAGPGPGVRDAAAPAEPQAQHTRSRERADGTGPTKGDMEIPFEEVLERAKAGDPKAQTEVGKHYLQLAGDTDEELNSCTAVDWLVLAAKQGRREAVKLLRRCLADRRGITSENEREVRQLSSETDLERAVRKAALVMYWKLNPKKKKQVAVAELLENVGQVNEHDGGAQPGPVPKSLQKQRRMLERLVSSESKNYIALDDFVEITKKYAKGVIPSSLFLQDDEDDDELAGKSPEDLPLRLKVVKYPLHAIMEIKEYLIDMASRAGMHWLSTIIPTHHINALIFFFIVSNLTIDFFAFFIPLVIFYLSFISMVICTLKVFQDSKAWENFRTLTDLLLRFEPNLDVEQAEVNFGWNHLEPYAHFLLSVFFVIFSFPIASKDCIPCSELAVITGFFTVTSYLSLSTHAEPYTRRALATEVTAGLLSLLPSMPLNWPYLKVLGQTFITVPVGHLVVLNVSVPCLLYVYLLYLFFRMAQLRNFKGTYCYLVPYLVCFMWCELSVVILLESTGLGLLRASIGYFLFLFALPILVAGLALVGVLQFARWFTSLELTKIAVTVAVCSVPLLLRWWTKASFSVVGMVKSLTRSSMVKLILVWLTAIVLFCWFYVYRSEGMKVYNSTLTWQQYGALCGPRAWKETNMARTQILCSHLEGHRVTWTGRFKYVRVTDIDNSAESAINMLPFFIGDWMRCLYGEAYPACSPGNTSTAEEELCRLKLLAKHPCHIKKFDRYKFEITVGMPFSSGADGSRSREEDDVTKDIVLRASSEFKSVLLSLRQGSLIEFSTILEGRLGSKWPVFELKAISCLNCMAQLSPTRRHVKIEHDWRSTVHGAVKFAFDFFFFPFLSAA

T2: endogenous CISD2 (HEK293) (human (endogenous in HEK293)) (UniProt Q8N5K1)
T2 sequence: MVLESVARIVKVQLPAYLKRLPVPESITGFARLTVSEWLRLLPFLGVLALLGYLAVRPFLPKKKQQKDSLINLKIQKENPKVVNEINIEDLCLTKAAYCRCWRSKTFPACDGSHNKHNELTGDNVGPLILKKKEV


Legend:
[1] = target: T1, EGFP-WFS1; experiment: co-IP; EGFP-WFS1 immunoprecipitated from transfected HEK293 cell lysate with GFP-Trap (Proteintech protocol); CISD2-myc detected with anti-myc antibodies
[2] = target: RyR2 (mouse brain) (mouse (endogenous in whole brain)) (UniProt E9Q401); experiment: co-IP; whole brain lysates of six-month-old mice; RyR2 immunoprecipitated with Protein G Dynabeads; WFS1 and CISD2 assessed in the immunocomplex
[3] = target: T2, endogenous CISD2 (HEK293) (human (endogenous in HEK293)); experiment: co-IP; non-transfected HEK293 cell lysate; CISD2 immunoprecipitated with mouse anti-CISD2 on rec-Protein G-Sepharose 4B beads; WFS1 detected with rabbit anti-WFS1

binding [2]	Binder	also measured
–	CISD2-myc (protein, UniProt Q8N5K1 1-135) MVLESVARIVKVQLPAYLKRLPVPESITGFARLTVSEWLRLLPFLGVLALLGYLAVRPFLPKKKQQKDSLINLKIQKENPKVVNEINIEDLCLTKAAYCRCWRSKTFPACDGSHNKHNELTGDNVGPLILKKKEV	binding [1]: binds
binds	endogenous CISD2 (mouse brain) (protein, UniProt Q9CQB5 1-135) MVLDSVARIVKVQLPAYLKQLPVPDSITGFARLTVSDWLRLLPFLGVLALLGYLAVRPFFPKKKQQKDSLINLKIQKENPKVVNEINIEDLCLTKAAYCRCWRSKTFPACDGSHNKHNELTGDNVGPLILKKKEV	–
–	endogenous WFS1 (HEK293) (protein, UniProt O76024 1-890) MDSNTAPLGPSCPQPPPAPQPQARSRLNATASLEQERSERPRAPGPQAGPGPGVRDAAAPAEPQAQHTRSRERADGTGPTKGDMEIPFEEVLERAKAGDPKAQTEVGKHYLQLAGDTDEELNSCTAVDWLVLAAKQGRREAVKLLRRCLADRRGITSENEREVRQLSSETDLERAVRKAALVMYWKLNPKKKKQVAVAELLENVGQVNEHDGGAQPGPVPKSLQKQRRMLERLVSSESKNYIALDDFVEITKKYAKGVIPSSLFLQDDEDDDELAGKSPEDLPLRLKVVKYPLHAIMEIKEYLIDMASRAGMHWLSTIIPTHHINALIFFFIVSNLTIDFFAFFIPLVIFYLSFISMVICTLKVFQDSKAWENFRTLTDLLLRFEPNLDVEQAEVNFGWNHLEPYAHFLLSVFFVIFSFPIASKDCIPCSELAVITGFFTVTSYLSLSTHAEPYTRRALATEVTAGLLSLLPSMPLNWPYLKVLGQTFITVPVGHLVVLNVSVPCLLYVYLLYLFFRMAQLRNFKGTYCYLVPYLVCFMWCELSVVILLESTGLGLLRASIGYFLFLFALPILVAGLALVGVLQFARWFTSLELTKIAVTVAVCSVPLLLRWWTKASFSVVGMVKSLTRSSMVKLILVWLTAIVLFCWFYVYRSEGMKVYNSTLTWQQYGALCGPRAWKETNMARTQILCSHLEGHRVTWTGRFKYVRVTDIDNSAESAINMLPFFIGDWMRCLYGEAYPACSPGNTSTAEEELCRLKLLAKHPCHIKKFDRYKFEITVGMPFSSGADGSRSREEDDVTKDIVLRASSEFKSVLLSLRQGSLIEFSTILEGRLGSKWPVFELKAISCLNCMAQLSPTRRHVKIEHDWRSTVHGAVKFAFDFFFFPFLSAA	binding [3]: binds
binds	endogenous WFS1 (mouse brain) (protein, UniProt P56695 1-890) MNSGTPPPSPSGPPPPPAPQPQARARLNATASLEQDKIEPPRAPRPQADPSAGRSAGEAAAPEPRAPQTGSREETDRAGPMKADVEIPFEEVLEKAKAGDPKAQTEVGKHYLRLANDADEELNSCSAVAWLILAAKQGRREAVKLLRRCLADRKGITSENEAEVKQLSSETDLERAVRKAALVMYWKLNPKKKKQVAVSELLENVGQVNEQDGGAQPGPVPKSLQKQRRMLERLVSSESKNYIALDDFVELTKKYAKGIIPTNLFLQDEDEDEDELAGKSPEDLPLRQKVVKYPLHAIMEIKEYLIDVASKAGMHWLSTIVPTHHINALIFFFIISNLTIDFFAFFIPLVVFYLSFVSMVICTLKVFQDSKAWENFRTLTDLLLRFEPNLDVEQAEVNFGWNHLEPYIHFLLSVVFVIFSFPLASKDCIPCSELAVISTFFTVTSYMSLSSSAEPYTRRALVTEVAAGLLSLLPTVPVDWRFLKVLGQTFFTVPVGHFIILNVSLPCLLYVYLFYLFFRMAQLRNFKGTYCYLVPYLVCFMWCELSVVILLQSTGLGLVRASIGYFLFLFALPILVAGLALMGTVQFARWFLSLDLTKIMVTTVICGVPLLFRWWTKANFSVMGMVKSLTKSSMVKLILVWLTAILLFCWFYVYRSEGMKVYNSTLTWQQYGFLCGPRAWKETNMARTQILCSHLEGHRVTWTGRFKYVRVTEIDNSAESAINMLPFFLGDWMRCLYGEAYPSCSSGNTSTAEEELCRLKQLAKHPCHIKKFDRYKFEITVGMPFGTNGNRGHEEDDITKDIVLRASSEFKDVLLNLRQGSLIEFSTILEGRLGSKWPVFELKAISCLNCMTQLSPARRHVKIEQDWRSTVHGALKFAFDFFFFPFLSAA	–
